# Assay results taken from PubChem BioAssay AID485314 (National Center for Advancing Translational Sciences (NCATS), 2010).
# Among all 340,000 compounds or so, about 4,500 (1.3%) were called active. The inconclusive results got no clear call from the source; some entries with a clear call stand among them for comparison. Calls come from the whole dose curve; as a rule, active = well fitted inhibition curve with a large enough effect; inconclusive = small, poorly fitted or top-dose-only effect, or another doubt; inactive = no such curve, though single readings can be large or run the other way. Potencies beside an inconclusive call are fits to weak or partial responses and may not hold up.
# Target: DNA polymerase beta (Homo sapiens) (UniProt P06746)
# Experiment: qHTS Assay for Inhibitors of DNA Polymerase Beta
# Details: Pol beta primer extension/strand displacement, fluorescence kinetic; activity change, negative = inhibition: at 114 µM (top of the series)
# Summary of the method: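 Homogeneous kinetic assay of primer extension and strand displacement by 10 nM Pol beta, preincubated 15 min at room temperature with compound before 50 nM substrate (final) was added. Read at 0 and 10 min; four-parameter Hill fit.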
# % is set by controls: 0 for no effect and ±100 for the full control effect; potency is the fitted concentration of half-maximal effect.
Compound,Potency,"activity change, negative = inhibition"
O=C(C1CC(=O)N(c2ccccc2)C1)N1CCN(C2=NS(=O)(=O)c3ccccc32)CC1 (stereo not drawn),"inconclusive: 0.112 µM [inhibitor, full curve, poor fit]",–
COC(=O)CN1C(=O)C(C)(C)Oc2ccc(C(=O)Nc3ccccc3F)cc21,"inconclusive: 89.1 µM [inhibitor, single point]",–
Cn1nc(C(F)(F)F)cc1C(=O)Nc1ccc(-c2ccno2)cc1,"inconclusive: 0.708 µM [inhibitor, single point]",–
COc1cc2ccccc2cc1C(=O)Nc1ccc(O)cc1,active: 22.4 µM,–
COC(=O)c1c(C)[nH]c(C(=O)CN2CCOCC2)c1C,"inconclusive: 89.1 µM [inhibitor, single point]",–
Cc1ccc(C(C2=C(O)CC(C)(C)CC2=O)C2C(=O)CC(C)(C)CC2=O)s1 (stereo not drawn),inactive,–
CCOc1ccc(CNC(=O)c2cc3c(=O)n(Cc4cccs4)ccc3nc2C)cc1,active: 12.6 µM,–
Cc1ccc(C)c(N(CC(=O)NCCSCc2ccco2)S(C)(=O)=O)c1,active: 28.2 µM,–
Cn1nccc1C(=O)N1CCCC(C(=O)c2ccc(Oc3ccccc3)cc2)C1 (stereo not drawn),–,inconclusive: -35.4% [inhibitor]
Cc1cccc(NC(=O)c2ccc3ccccc3n2)n1,"inconclusive: 89.1 µM [inhibitor, single point]",–
O=C(N/N=C\c1ccc(CNS(=O)(=O)c2ccc(Cl)cc2)o1)C(=O)Nc1ccc(Oc2ccccc2)cc1,"inconclusive: 15.8 µM [inhibitor, partial curve]",–
CCCCn1c2ccccc2c2nnc(SCC(=O)Nc3ccc(NC(C)=O)cc3)nc21,active: 14.1 µM,–
O=C(Nc1ccccc1)OC1C2CCC1C(N1CCCCC1)CC2 (stereo not drawn),"inconclusive: 2.82 µM [inhibitor, partial curve, poor fit]",–
CCOC(=O)N1CCN(CC(=O)Nc2nc3ccc(OC)cc3s2)CC1,inactive,–
O=C1c2ccccc2C(=O)c2c([N+](=O)[O-])ccc(O)c21,"inconclusive: 11.2 µM [inhibitor, full curve]",–
Clc1ccc(-c2nnc(-c3ccccc3)c(N3CCSCC3)n2)cc1,"inconclusive: 3.98 µM [inhibitor, single point]",–
CCC1(C)CC2(CCCN(CCC(O)(c3ccccc3)c3ccccc3)C2)CCO1 (stereo not drawn),"inconclusive: 1.41 µM [inhibitor, full curve, poor fit]",–
O=C(OCCCCN1C(=O)c2ccccc2C1=O)c1ccc(S(=O)(=O)N2CCCC2)cc1,"inconclusive: 89.1 µM [inhibitor, single point]",–
CCS(=O)(=O)C1=NN2C(=N)/C(=C\c3ccc(OCCOc4cccc(OC)c4)c(OC)c3)C(=O)N=C2S1,active: 50.1 µM,–
O=C(CCC1CCCN(C(=O)C2=CCCC2)C1)N1CCN(c2ccccn2)CC1 (stereo not drawn),inactive,–
O=C(/C=C/c1cccc(Oc2ccccc2)c1)N1CCOCC1,"inconclusive: 89.1 µM [inhibitor, partial curve, poor fit]",–
CCc1cccc(C)c1NC(=O)CCCSc1nc2ccccc2s1,"inconclusive: 89.1 µM [inhibitor, single point]",–
O=C(Nc1nnc(SCc2ccc(F)cc2)s1)c1ccc2ncsc2c1,inactive,–

Compound,Potency,"activity change, negative = inhibition"
Cn1nc(CC(=O)N2CCN(c3ccccc3)CC2)c2ccccc2c1=O,"inconclusive: 0.112 µM [inhibitor, full curve, poor fit]",–
Cc1ccc(NC(=O)C(=O)NCC(c2cccnc2)N2CCOCC2)cc1Cl (stereo not drawn),"inconclusive: 89.1 µM [inhibitor, single point]",–
O=C(COc1ccccc1)NC1CCN(Cc2ccccc2)CC1,"inconclusive: 3.16 µM [inhibitor, single point]",–
COc1ccc(C(=O)c2ccc(CC#N)s2)cc1,"inconclusive: 3.98 µM [inhibitor, full curve, poor fit]",–
COc1ccc(C(=O)NC(=S)Nc2ccc(S(=O)(=O)Nc3cc(OC)nc(OC)n3)cc2)cc1,inactive,–
CC(=O)c1ccc(N2CCN(C(=O)C3CCCN3S(=O)(=O)c3cccc4nsnc34)CC2)cc1 (stereo not drawn),"inconclusive: 0.891 µM [inhibitor, single point]",–
CCOc1ccc(C2=Nn3c(nnc3-c3ccco3)SC2)cc1,"inconclusive: 39.8 µM [inhibitor, partial curve, poor fit]",–
N#C/C(=N\Nc1ccc(F)cc1)C(=N)N1CCCCC1,"inconclusive: 89.1 µM [inhibitor, single point]",–
O=c1c(-c2nnc(SCc3ccc(Cl)cc3Cl)o2)cccn1Cc1ccccc1,"inconclusive: 7.94 µM [inhibitor, partial curve]",–
O=C(COC(=O)CCC(=O)c1cccs1)Nc1ccc(Cl)cn1,"inconclusive: 79.4 µM [inhibitor, single point]",–
Cc1cc(=O)[nH]c(SCC(=O)Nc2cc(S(=O)(=O)N3CCCC3)ccc2Cl)n1,–,inconclusive: -32.7% [inhibitor]
CCc1cc(CNC(=O)c2ccc(OC3CCN(CCc4ccccc4)CC3)cc2)on1,–,inconclusive: -73.4% [inhibitor]
COc1ccccc1C(=O)Nc1ncc2c(n1)CC(c1ccco1)CC2=O (stereo not drawn),active: 39.8 µM,–
O=C1NC(=S)N/C1=C/c1cccc([N+](=O)[O-])c1O,inactive,–
Cc1nc(N=Nc2ccc(C(=O)O)cc2)c(COP(=O)(O)O)c(C=O)c1O,"inconclusive: 28.2 µM [inhibitor, single point]",–
COc1ccc(C(=O)Nc2ccnn2C2CCN(Cc3ccc4nonc4c3)CC2)cc1,"inconclusive: 31.6 µM [inhibitor, full curve]",–
COCCNC(=O)c1cnn2c(C(F)(F)F)cc(-c3ccc(C)cc3)nc12,inactive,–
O=C(Cn1c(=O)oc2cc(S(=O)(=O)NCc3ccccc3)ccc21)Nc1ccc(F)c(Cl)c1,"inconclusive: 89.1 µM [inhibitor, single point]",–
O=C(CSc1nnnn1C1CCCCC1)N1CCN(C(=O)c2ccco2)CC1,"inconclusive: 39.8 µM [inhibitor, full curve]",–
COc1cc2cc(CN(CCc3cccc(C)c3)C(=S)NCCCN(C)C)c(=O)[nH]c2cc1OC,"inconclusive: 89.1 µM [inhibitor, single point]",–
Cc1ccc(SC(C)C(=O)NCc2ccncc2)cc1 (stereo not drawn),"inconclusive: 39.8 µM [inhibitor, partial curve, poor fit]",–
Cc1ccc(C#CC[N+](C)(C)CC#Cc2ccccc2)cc1,"inconclusive: 100 µM [inhibitor, single point]",–
COc1ccc(/C=C2\SC(=O)N(CC(=O)NC3C=CS(=O)(=O)C3)C2=O)cc1 (stereo not drawn),"inconclusive: 100 µM [inhibitor, single point]",–

# Some of the entries so far, bar-delimited.
Compound | Potency | activity change, negative = inhibition
CCOc1ccc(C2=Nn3c(nnc3-c3ccco3)SC2)cc1 | inconclusive: 39.8 µM [inhibitor, partial curve, poor fit] | –
N#C/C(=N\Nc1ccc(F)cc1)C(=N)N1CCCCC1 | inconclusive: 89.1 µM [inhibitor, single point] | –
O=c1c(-c2nnc(SCc3ccc(Cl)cc3Cl)o2)cccn1Cc1ccccc1 | inconclusive: 7.94 µM [inhibitor, partial curve] | –
O=C(COC(=O)CCC(=O)c1cccs1)Nc1ccc(Cl)cn1 | inconclusive: 79.4 µM [inhibitor, single point] | –
Cc1cc(=O)[nH]c(SCC(=O)Nc2cc(S(=O)(=O)N3CCCC3)ccc2Cl)n1 | – | inconclusive: -32.7% [inhibitor]
CCc1cc(CNC(=O)c2ccc(OC3CCN(CCc4ccccc4)CC3)cc2)on1 | – | inconclusive: -73.4% [inhibitor]
COc1ccccc1C(=O)Nc1ncc2c(n1)CC(c1ccco1)CC2=O (stereo not drawn) | active: 39.8 µM | –
O=C1NC(=S)N/C1=C/c1cccc([N+](=O)[O-])c1O | inactive | –
Cc1nc(N=Nc2ccc(C(=O)O)cc2)c(COP(=O)(O)O)c(C=O)c1O | inconclusive: 28.2 µM [inhibitor, single point] | –
COc1ccc(C(=O)Nc2ccnn2C2CCN(Cc3ccc4nonc4c3)CC2)cc1 | inconclusive: 31.6 µM [inhibitor, full curve] | –
COCCNC(=O)c1cnn2c(C(F)(F)F)cc(-c3ccc(C)cc3)nc12 | inactive | –
O=C(Cn1c(=O)oc2cc(S(=O)(=O)NCc3ccccc3)ccc21)Nc1ccc(F)c(Cl)c1 | inconclusive: 89.1 µM [inhibitor, single point] | –

# (list continues)

Compound,Potency,"activity change, negative = inhibition"
CCN=C1S/C(=C\c2cc(OCC)c(O)cc2Br)C(=O)N1CC,"inconclusive: 63.1 µM [inhibitor, single point]",–
O=C(Nc1cccc(Oc2ccc(C(=O)O)c(C(=O)O)c2)c1)c1ccc(-c2ccccc2)cc1,–,inconclusive: -123% [inhibitor]
CCc1ccccc1NC(=O)N[C@H](C(=O)O)C(C)C,"inconclusive: 0.158 µM [inhibitor, full curve, poor fit]",–
Clc1cccc(CNc2cc(-c3ccccc3)nc3nncn23)c1,inactive,–
CCc1ccccc1NC(=O)Cn1nc(C(F)(F)F)c2c1CCCC2,"inconclusive: 100 µM [inhibitor, single point]",–
COc1ccccc1N1CCN(Cc2cccs2)CC1,"inconclusive: 89.1 µM [inhibitor, single point]",–
CCc1ccc(-c2cc(C(=O)NCc3ccco3)c3ccccc3n2)s1,"inconclusive: 11.2 µM [inhibitor, full curve]",–
O=C(O)CCCNc1cc(N2CCN(C3CCCCC3)CC2)c2noc3c2c1C(=O)c1ccccc1-3,active: 20 µM,–
CCCS(=O)(=O)N1CC(=O)N(c2cc(C)ccc2C)C(C)(C(=O)NC2CCCCCC2)C1 (stereo not drawn),inactive,–
Cc1cccc(N2CCn3c2nc2c3c(=O)n(CCc3ccccc3)c(=O)n2C)c1,active: 39.8 µM,–
CC(=O)Nc1ccc(NC(=O)CSc2nc3nc(-c4cccs4)cc(C(F)(F)F)c3c(=O)[nH]2)cc1,inactive,–
O=C(CCc1nnc2ccc(NCc3ccco3)nn12)Nc1ccccc1F,–,inconclusive: -47.6% [inhibitor]
Cc1ccc2cc(C#N)c(N3CCCC3)nc2c1C,"inconclusive: 89.1 µM [inhibitor, single point]",–
O=C1C=C(O)c2cccc(O)c2C1=O,active: 20 µM,–
CCS(=O)(=O)C1=NN2C(=N)/C(=C\c3ccc(OS(=O)(=O)c4ccccc4)cc3)C(=O)N=C2S1,"inconclusive: 44.7 µM [inhibitor, single point]",–
O=[N+]([O-])c1ccccc1NC(=S)N/N=C/c1ccc(O)c(O)c1,active: 3.55 µM,–
O=C(CSc1nc(O)cc(=O)n1-c1ccccc1)Nc1ccc(Br)cn1,"inconclusive: 79.4 µM [inhibitor, single point]",–
Cc1nc(C)c(C(=O)Nc2ccccc2-c2ccccc2)o1,"inconclusive: 89.1 µM [inhibitor, single point]",–
Cc1ccc(CN(C(=O)c2ccccc2F)c2ccccn2)o1,active: 56.2 µM,–
CS(=O)(=O)N1N=C(c2ccco2)CC1c1ccccc1 (stereo not drawn),inactive,–
CCc1cc2c(=O)n(Cc3ccco3)c(SCC(=O)N(C)C3CCS(=O)(=O)C3)nc2s1 (stereo not drawn),active: 20 µM,–
Cc1nc2ccccc2n2c(O)c(CC(=O)O)cc12,"inconclusive: 28.2 µM [inhibitor, partial curve, poor fit]",–
